# The other results are listed elsewhere or left out.
# What was measured:
# Assay in all cases: glycan array binding signal (z-score within array); higher = stronger binding
# Conditions in all cases: glycan notation: IUPAC condensed, linker removed
# [1] = molecular target: GlcNAc(b1-3)Gal(b1-4)GlcNAc(b1-3)Gal(b1-4)GlcNAc
# Outline: (§1)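 Glycan array data came from 3228 arrays in the Consortium for Functional Glycomics database, and only arrays with an available protein sequence were kept. Glycan names were put into IUPAC-condensed notation, and columns mapping to the same glycan were averaged. The binding signal is a within-array Z-score, averaged across arrays of one protein sequence run at different concentrations or buffers and across linkers. A negative Z-score can be read as non-binding.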
# GlcNAc(b1-3)GalNAc = molecular target: GlcNAc(b1-3)GalNAc
# Outline: as §1
# GlcNAc(b1-3)Man = molecular target: GlcNAc(b1-3)Man
# Outline: as §1
# [2] = molecular target: GlcNAc(b1-3)[GlcNAc(b1-4)][GlcNAc(b1-6)]GlcNAc
# Outline: as §1
# [3] = molecular target: GlcNAc(b1-3)[GlcNAc(b1-6)]Gal(b1-4)GlcNAc
# Outline: as §1
# [4] = molecular target: GlcNAc(b1-3)[GlcNAc(b1-6)]GalNAc
# Outline: as §1
# [5] = molecular target: GlcNAc(b1-4)Gal(b1-4)GlcNAc
# Outline: as §1
# GlcNAc(b1-4)GlcNAc = molecular target: GlcNAc(b1-4)GlcNAc
# Outline: as §1
# [6] = molecular target: GlcNAc(b1-4)GlcNAc(b1-4)GlcNAc
# Outline: as §1
# [7] = molecular target: GlcNAc(b1-4)GlcNAc(b1-4)GlcNAc(b1-4)GlcNAc(b1-4)GlcNAc
# Outline: as §1
# [8] = molecular target: GlcNAc(b1-4)GlcNAc(b1-4)GlcNAc(b1-4)GlcNAc(b1-4)GlcNAc(b1-4)GlcNAc
# Outline: as §1
# [9] = molecular target: GlcNAc(b1-4)[GlcNAc(b1-6)]GalNAc
# Outline: as §1
# [10] = molecular target: GlcNAc(b1-6)Gal(b1-4)GlcNAc
# Outline: as §1
# GlcNAc(b1-6)GalNAc = molecular target: GlcNAc(b1-6)GalNAc
# Outline: as §1
# GlcNAc3Prop(b1-4)GlcNAc = molecular target: GlcNAc3Prop(b1-4)GlcNAc
# Outline: as §1
# [11] = molecular target: GlcNAc6S(b1-3)Gal(b1-4)GlcNAc
# Outline: as §1
# Kdn(a2-3)Gal(b1-3)GalNAc = molecular target: Kdn(a2-3)Gal(b1-3)GalNAc
# Outline: as §1
# Kdn(a2-3)Gal(b1-3)GlcNAc = molecular target: Kdn(a2-3)Gal(b1-3)GlcNAc
# Outline: as §1
# Kdn(a2-3)Gal(b1-4)Glc = molecular target: Kdn(a2-3)Gal(b1-4)Glc
# Outline: as §1
# Kdn(a2-3)Gal(b1-4)GlcNAc = molecular target: Kdn(a2-3)Gal(b1-4)GlcNAc
# Outline: as §1
# [12] = molecular target: Kdn(a2-3)Gal(b1-4)[Fuc(a1-3)]GlcNAc
# Outline: as §1
# Kdn(a2-6)Gal(b1-4)GlcNAc = molecular target: Kdn(a2-6)Gal(b1-4)GlcNAc
# Outline: as §1
# [13] = molecular target: Man(a1-2)Man(a1-2)Man(a1-3)Man
# Outline: as §1
# [14] = molecular target: Man(a1-2)Man(a1-2)Man(a1-6)[Man(a1-3)]Man
# Outline: as §1
# Man(a1-2)Man(a1-3)Man = molecular target: Man(a1-2)Man(a1-3)Man
# Outline: as §1
# [15] = molecular target: Man(a1-2)Man(a1-3)[Man(a1-2)Man(a1-6)]Man
# Outline: as §1
# [16] = molecular target: Man(a1-2)Man(a1-3)[Man(a1-2)Man(a1-6)]Man(a1-6)[Man(a1-2)Man(a1-2)Man(a1-3)]Man
# Outline: as §1
# [17] = molecular target: Man(a1-2)Man(a1-3)[Man(a1-2)Man(a1-6)]Man(a1-6)[Man(a1-2)Man(a1-2)Man(a1-3)]Man(b1-4)GlcNAc(b1-4)GlcNAc
# Outline: as §1
# [18] = molecular target: Man(a1-2)Man(a1-3)[Man(a1-6)]Man(a1-6)[Man(a1-2)Man(a1-3)]Man(b1-4)GlcNAc(b1-4)GlcNAc
# Outline: as §1
# [19] = molecular target: Man(a1-2)Man(a1-6)[Man(a1-3)]Man(a1-6)[Man(a1-2)Man(a1-2)Man(a1-3)]Man
# Outline: as §1
# [20] = molecular target: Man(a1-2)Man(a1-6)[Man(a1-3)]Man(a1-6)[Man(a1-2)Man(a1-2)Man(a1-3)]Man(b1-4)GlcNAc(b1-4)GlcNAc
# Outline: as §1
# Man(a1-3)[Man(a1-6)]Man = molecular target: Man(a1-3)[Man(a1-6)]Man
# Outline: as §1
# [21] = molecular target: Man(a1-3)[Man(a1-6)]Man(a1-6)[Man(a1-2)Man(a1-3)]Man(b1-4)GlcNAc(b1-4)GlcNAc
# Outline: as §1
# [22] = molecular target: Man(a1-3)[Man(a1-6)]Man(a1-6)[Man(a1-3)]Man
# Outline: as §1
# [23] = molecular target: Man(a1-3)[Man(a1-6)]Man(a1-6)[Man(a1-3)]Man(b1-4)GlcNAc(b1-4)GlcNAc
# Outline: as §1
# [24] = molecular target: Man(a1-3)[Man(a1-6)]Man(b1-4)GlcNAc(b1-4)GlcNAc
# Outline: as §1
# Man(a1-6)Man = molecular target: Man(a1-6)Man
# Outline: as §1
# Man(b1-4)GlcNAc = molecular target: Man(b1-4)GlcNAc
# Outline: as §1
# Neu5Ac(a2-3)Gal = molecular target: Neu5Ac(a2-3)Gal
# Outline: as §1
# [25] = molecular target: Neu5Ac(a2-3)Gal(b1-3)GalNAc
# Outline: as §1
# [26] = molecular target: Neu5Ac(a2-3)Gal(b1-3)GalNAc(b1-3)Gal(a1-4)Gal(b1-4)Glc
# Outline: as §1
# [27] = molecular target: Neu5Ac(a2-3)Gal(b1-3)GalNAc(b1-4)[Neu5Ac(a2-3)]Gal(b1-4)Glc
# Outline: as §1
# [28] = molecular target: Neu5Ac(a2-3)Gal(b1-3)GalNAc6S
# Outline: as §1
# [29] = molecular target: Neu5Ac(a2-3)Gal(b1-3)GlcNAc
# Outline: as §1
# [30] = molecular target: Neu5Ac(a2-3)Gal(b1-3)GlcNAc(b1-2)Man(a1-3)[Neu5Ac(a2-3)Gal(b1-3)GlcNAc(b1-2)Man(a1-6)]Man(b1-4)GlcNAc(b1-4)GlcNAc
# Outline: as §1
binder,measurement,setting,value
"CREG (Mus musculus), O88668 (protein) MAARAPELARSLLAALLAPALVALLVSPASGRGGRDHGDWDVDRRLPPLPPREDGPRVARFVTHVSDWGSLATISTIKEVRGWPFADIISISDGPPGEGTGEPYMYLSPLQQAVSDLQENPEATLTMSLAQTVYCRNHGFDPQSPLCVHIMMSGTVTKVNKTEEDYARDSLFVRHPEMKHWPSSHNWFFAKLKISRIWVLDYFGGPKVVTPEEYFNVTLQ",glycan array binding signal (z-score),[1],-0.848
same,glycan array binding signal (z-score),GlcNAc(b1-3)GalNAc,-0.689
same,glycan array binding signal (z-score),GlcNAc(b1-3)Man,0.612
same,glycan array binding signal (z-score),[2],2.23
same,glycan array binding signal (z-score),[3],-0.627
same,glycan array binding signal (z-score),[4],0.479
same,glycan array binding signal (z-score),[5],0.032
same,glycan array binding signal (z-score),GlcNAc(b1-4)GlcNAc,-0.666
same,glycan array binding signal (z-score),[6],-0.612
same,glycan array binding signal (z-score),[7],-1.53
same,glycan array binding signal (z-score),[8],-1.1
same,glycan array binding signal (z-score),[9],-0.522
same,glycan array binding signal (z-score),[10],-0.224
same,glycan array binding signal (z-score),GlcNAc(b1-6)GalNAc,-0.035
same,glycan array binding signal (z-score),GlcNAc3Prop(b1-4)GlcNAc,-1.19
same,glycan array binding signal (z-score),[11],0.604
same,glycan array binding signal (z-score),Kdn(a2-3)Gal(b1-3)GalNAc,0.66
same,glycan array binding signal (z-score),Kdn(a2-3)Gal(b1-3)GlcNAc,1.82
same,glycan array binding signal (z-score),Kdn(a2-3)Gal(b1-4)Glc,-0.938
same,glycan array binding signal (z-score),Kdn(a2-3)Gal(b1-4)GlcNAc,0.127
same,glycan array binding signal (z-score),[12],0.212
same,glycan array binding signal (z-score),Kdn(a2-6)Gal(b1-4)GlcNAc,0.104
same,glycan array binding signal (z-score),[13],-0.649
same,glycan array binding signal (z-score),[14],0.392
same,glycan array binding signal (z-score),Man(a1-2)Man(a1-3)Man,-0.181
same,glycan array binding signal (z-score),[15],-0.6
same,glycan array binding signal (z-score),[16],-0.856
same,glycan array binding signal (z-score),[17],-0.346
same,glycan array binding signal (z-score),[18],-0.244
same,glycan array binding signal (z-score),[19],-0.44
same,glycan array binding signal (z-score),[20],-0.094
same,glycan array binding signal (z-score),Man(a1-3)[Man(a1-6)]Man,-0.424
same,glycan array binding signal (z-score),[21],-0.242
same,glycan array binding signal (z-score),[22],-1.12
same,glycan array binding signal (z-score),[23],2.08
same,glycan array binding signal (z-score),[24],0.536
same,glycan array binding signal (z-score),Man(a1-6)Man,0.896
same,glycan array binding signal (z-score),Man(b1-4)GlcNAc,-0.224
same,glycan array binding signal (z-score),Neu5Ac(a2-3)Gal,-1.59
same,glycan array binding signal (z-score),[25],-0.014
same,glycan array binding signal (z-score),[26],-0.096
same,glycan array binding signal (z-score),[27],-0.064
same,glycan array binding signal (z-score),[28],0.46
same,glycan array binding signal (z-score),[29],-0.361
same,glycan array binding signal (z-score),[30],-1.18

# For reference, some entries already given:
binder,measurement,setting,value
"CREG (Mus musculus), O88668 (protein) MAARAPELARSLLAALLAPALVALLVSPASGRGGRDHGDWDVDRRLPPLPPREDGPRVARFVTHVSDWGSLATISTIKEVRGWPFADIISISDGPPGEGTGEPYMYLSPLQQAVSDLQENPEATLTMSLAQTVYCRNHGFDPQSPLCVHIMMSGTVTKVNKTEEDYARDSLFVRHPEMKHWPSSHNWFFAKLKISRIWVLDYFGGPKVVTPEEYFNVTLQ",glycan array binding signal (z-score),GlcNAc(b1-3)Man,0.612
same,glycan array binding signal (z-score),[2],2.23
